Reference: patent US20240059769A1
These are yes or no findings as the source states them, for the method shown. Some results given as binding are weak or reduced against the parent protein; the word gives no strength.

Legend:
BDG33.023 [1] = test: competition ELISA: 20 nM antibody pre-incubated with soluble hIL-13 (0.78-200 nM), then on a plate coated with hIL-13; bound IgG detected with anti-human Fc-HRP
BDG33.025 = test: as above
BDG33.023 [2] = test: cross-competition ELISA: 20 nM antibody pre-incubated with soluble hIL-13 (0.78-200 nM), then on a plate coated with hTSLP; bound IgG detected with anti-human Fc-HRP

Measured: binding

recombinant human IL-13 (from UniProt P35225 35-146) (ligand)
binds: BDG33.023 [1] | BDG33.025 | BDG33.023 [2]
